Data on four molecules can be found in PMC5562703.

For the assay, the target named is T1, Atg8 fused to the DNA-binding domain (BD) of Gal4 (Saccharomyces cerevisiae) (UniProt P38182).
T1 sequence: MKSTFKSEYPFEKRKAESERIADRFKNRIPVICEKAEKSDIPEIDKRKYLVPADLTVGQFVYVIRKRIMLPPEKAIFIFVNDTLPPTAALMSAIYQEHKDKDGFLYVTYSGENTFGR
The assay can be described thus: two-hybrid; Gal4 AD-Atg4 variants (pGAD-C1) and Gal4 BD-Atg8 (pGBDU-C1) in strain PJ69-4A; growth on SMD lacking leucine, uracil and adenine (test plate).

Positions count from the first letter of the chain named. In names and notes the source's numbering stands. These are yes or no findings as the source states them, for the method shown. Some results given as binding are weak or reduced against the parent protein; the word gives no strength. Where a sequence is shown, tags or fusion partners need not be part of it.

B1: Atg4 fused to the activation domain (AD) of Gal4 (enzyme, UniProt P53867 1-494)
chain: MQRWLQLWKMDLVQKVSHGVFEGSSEEPAALMNHDYIVLGEVYPERDEESGAEQCEQDCRYRGEAVSDGFLSSLFGREISSYTKEFLLDVQSRVNFTYRTRFVPIARAPDGPSPLSLNLLVRTNPISTIEDYIANPDCFNTDIGWGCMIRTGQSLLGNALQILHLGRDFRVNGNESLERESKFVNWFNDTPEAPFSLHNFVSAGTELSDKRPGEWFGPAATARSIQSLIYGFPECGIDDCIVSVSSGDIYENEVEKVFAENPNSRILFLLGVKLGINAVNESYRESICGILSSTQSVGIAGGRPSSSLYFFGYQGNEFLHFDPHIPQPAVEDSFVESCHTSKFGKLQLSEMDPSMLIGILIKGEKDWQQWKLEVAESAIINVLAKRMDDFDVSCSMDDVESVSSNSMKKDASNNENLGVLEGDYVDIGAIFPHTTNTEDVDEYDCFQDIHCKKQKIVVMGNTHTVNANLTDYEVEGVLVEKETVGIHSPIDEKC
B1: the binding entry is listed as “binds”.

B2: Atg4^S307D fused to the activation domain (AD) of Gal4 (enzyme, UniProt P53867 1-494)
chain: B1 chain with S307D
Regarding B2, the binding entry is “no binding”.

B3: Atg4^S307A fused to the activation domain (AD) of Gal4 (enzyme, UniProt P53867 1-494)
chain: B1 chain with S307A
Take B3: the binding entry is reported as “binds”.

B4: Protease-dead Atg4 (Atg4^PD, C147S) fused to the activation domain (AD) of Gal4 (enzyme, UniProt P53867 1-494)
chain: B1 chain with C147S
For the molecule B4, the binding entry is on record as “binds”.
